Measured values: the supplement of paper PMC10849652
The other results are listed elsewhere or left out.

Protein sequences, listed by entry. Tags and fused reporters are not part of them. Lines headed by an entry give the natural chain unless they say otherwise; changes in a name come on top.
UniProt P36941: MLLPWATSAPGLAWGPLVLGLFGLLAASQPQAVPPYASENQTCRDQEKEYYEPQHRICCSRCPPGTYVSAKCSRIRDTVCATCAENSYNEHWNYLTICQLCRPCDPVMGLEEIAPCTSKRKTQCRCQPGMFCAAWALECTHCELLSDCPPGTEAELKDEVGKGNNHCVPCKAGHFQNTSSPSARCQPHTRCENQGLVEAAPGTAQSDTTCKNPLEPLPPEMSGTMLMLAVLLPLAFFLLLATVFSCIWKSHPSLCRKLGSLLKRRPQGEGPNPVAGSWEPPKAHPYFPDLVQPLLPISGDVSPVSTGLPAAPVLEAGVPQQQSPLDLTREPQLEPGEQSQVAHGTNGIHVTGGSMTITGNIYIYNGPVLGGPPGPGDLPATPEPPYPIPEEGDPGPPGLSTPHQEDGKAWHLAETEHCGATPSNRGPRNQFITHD
UniProt Q9BQ69: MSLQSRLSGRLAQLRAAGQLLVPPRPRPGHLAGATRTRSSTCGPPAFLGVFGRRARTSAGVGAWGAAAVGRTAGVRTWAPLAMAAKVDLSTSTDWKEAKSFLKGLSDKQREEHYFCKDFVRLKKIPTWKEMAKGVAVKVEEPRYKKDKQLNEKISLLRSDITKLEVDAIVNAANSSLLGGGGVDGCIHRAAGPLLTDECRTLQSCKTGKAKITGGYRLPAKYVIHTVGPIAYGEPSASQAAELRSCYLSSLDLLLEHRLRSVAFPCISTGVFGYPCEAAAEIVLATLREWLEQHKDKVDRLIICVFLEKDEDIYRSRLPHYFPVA
UniProt Q9NTJ4: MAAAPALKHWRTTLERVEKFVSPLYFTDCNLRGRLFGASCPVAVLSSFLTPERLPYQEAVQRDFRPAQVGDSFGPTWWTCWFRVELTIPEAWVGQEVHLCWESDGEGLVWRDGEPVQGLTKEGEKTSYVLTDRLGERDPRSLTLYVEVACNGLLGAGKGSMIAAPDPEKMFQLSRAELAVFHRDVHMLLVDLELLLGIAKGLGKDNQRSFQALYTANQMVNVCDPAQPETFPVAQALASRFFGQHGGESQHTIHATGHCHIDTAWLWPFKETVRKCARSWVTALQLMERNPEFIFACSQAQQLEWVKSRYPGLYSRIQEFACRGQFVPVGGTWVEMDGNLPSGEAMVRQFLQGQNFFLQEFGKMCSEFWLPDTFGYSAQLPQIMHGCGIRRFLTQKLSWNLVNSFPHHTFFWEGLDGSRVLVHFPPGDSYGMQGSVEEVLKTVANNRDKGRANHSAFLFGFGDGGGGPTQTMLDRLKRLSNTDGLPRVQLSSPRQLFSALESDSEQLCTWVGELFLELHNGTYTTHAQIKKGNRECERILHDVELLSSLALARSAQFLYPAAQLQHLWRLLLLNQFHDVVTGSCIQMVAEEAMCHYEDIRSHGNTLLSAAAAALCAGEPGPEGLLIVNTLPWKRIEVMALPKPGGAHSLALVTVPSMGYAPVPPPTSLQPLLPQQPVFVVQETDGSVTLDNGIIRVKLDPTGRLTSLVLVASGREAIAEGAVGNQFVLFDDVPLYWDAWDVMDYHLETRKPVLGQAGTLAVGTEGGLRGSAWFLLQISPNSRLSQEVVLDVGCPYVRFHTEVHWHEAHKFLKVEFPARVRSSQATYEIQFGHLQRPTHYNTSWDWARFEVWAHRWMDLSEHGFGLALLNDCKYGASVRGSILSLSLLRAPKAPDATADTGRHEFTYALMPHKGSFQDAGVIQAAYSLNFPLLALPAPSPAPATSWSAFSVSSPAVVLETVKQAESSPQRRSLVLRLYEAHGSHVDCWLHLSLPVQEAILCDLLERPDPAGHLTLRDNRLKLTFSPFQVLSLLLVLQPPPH
UniProt O15479: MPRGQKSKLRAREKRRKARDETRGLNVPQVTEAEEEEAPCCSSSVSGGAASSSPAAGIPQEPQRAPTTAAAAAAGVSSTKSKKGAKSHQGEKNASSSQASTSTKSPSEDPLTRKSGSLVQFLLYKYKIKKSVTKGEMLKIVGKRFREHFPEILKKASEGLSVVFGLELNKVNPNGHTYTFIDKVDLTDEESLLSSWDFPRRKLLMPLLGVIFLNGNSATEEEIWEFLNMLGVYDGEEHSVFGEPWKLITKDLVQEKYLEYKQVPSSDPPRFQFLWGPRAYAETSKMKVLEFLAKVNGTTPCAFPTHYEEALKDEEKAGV
UniProt O43318: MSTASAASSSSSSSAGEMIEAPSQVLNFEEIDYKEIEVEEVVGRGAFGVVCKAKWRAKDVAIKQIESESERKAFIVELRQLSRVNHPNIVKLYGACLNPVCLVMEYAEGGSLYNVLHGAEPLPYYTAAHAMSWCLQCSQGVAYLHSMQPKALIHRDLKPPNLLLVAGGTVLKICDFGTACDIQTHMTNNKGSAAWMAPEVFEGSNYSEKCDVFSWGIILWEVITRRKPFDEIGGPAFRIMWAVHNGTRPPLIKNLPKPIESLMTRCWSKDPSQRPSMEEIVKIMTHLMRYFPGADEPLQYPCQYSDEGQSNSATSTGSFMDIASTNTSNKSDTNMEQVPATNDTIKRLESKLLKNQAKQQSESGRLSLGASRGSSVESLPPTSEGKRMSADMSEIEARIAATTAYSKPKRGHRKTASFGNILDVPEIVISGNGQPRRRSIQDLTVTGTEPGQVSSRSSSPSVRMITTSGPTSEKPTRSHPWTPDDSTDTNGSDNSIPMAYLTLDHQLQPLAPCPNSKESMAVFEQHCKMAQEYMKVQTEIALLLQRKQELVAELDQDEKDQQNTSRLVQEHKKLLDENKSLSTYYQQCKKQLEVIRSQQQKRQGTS
UniProt P49137, whole entry, looked up: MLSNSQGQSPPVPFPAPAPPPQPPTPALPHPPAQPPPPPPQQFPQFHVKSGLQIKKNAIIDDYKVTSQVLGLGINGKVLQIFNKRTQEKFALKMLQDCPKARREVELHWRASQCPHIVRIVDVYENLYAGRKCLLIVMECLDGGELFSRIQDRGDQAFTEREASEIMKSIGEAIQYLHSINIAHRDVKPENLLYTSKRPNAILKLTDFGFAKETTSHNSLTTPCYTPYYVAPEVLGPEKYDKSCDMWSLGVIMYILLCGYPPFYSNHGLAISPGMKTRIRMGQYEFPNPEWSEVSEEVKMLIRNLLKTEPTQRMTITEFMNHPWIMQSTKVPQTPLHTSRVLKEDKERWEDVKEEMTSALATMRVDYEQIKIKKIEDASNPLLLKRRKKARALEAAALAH
UniProt P33908: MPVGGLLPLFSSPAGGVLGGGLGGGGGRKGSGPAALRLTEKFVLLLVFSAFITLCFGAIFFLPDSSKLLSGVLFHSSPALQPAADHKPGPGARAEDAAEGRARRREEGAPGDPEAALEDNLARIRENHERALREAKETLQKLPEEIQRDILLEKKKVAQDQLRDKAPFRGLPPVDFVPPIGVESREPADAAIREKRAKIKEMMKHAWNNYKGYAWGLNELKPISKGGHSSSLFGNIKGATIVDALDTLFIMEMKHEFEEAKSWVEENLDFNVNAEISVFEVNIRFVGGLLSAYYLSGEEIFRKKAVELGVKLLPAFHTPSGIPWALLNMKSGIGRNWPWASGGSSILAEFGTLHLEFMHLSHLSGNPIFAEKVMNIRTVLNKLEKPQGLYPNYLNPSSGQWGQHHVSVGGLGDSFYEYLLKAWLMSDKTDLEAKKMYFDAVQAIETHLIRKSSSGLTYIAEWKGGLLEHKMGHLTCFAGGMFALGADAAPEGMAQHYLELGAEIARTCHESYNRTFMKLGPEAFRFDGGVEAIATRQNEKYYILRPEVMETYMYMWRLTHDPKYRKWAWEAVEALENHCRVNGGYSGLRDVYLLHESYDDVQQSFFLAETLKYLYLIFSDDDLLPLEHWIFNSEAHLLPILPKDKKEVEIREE
UniProt O60732: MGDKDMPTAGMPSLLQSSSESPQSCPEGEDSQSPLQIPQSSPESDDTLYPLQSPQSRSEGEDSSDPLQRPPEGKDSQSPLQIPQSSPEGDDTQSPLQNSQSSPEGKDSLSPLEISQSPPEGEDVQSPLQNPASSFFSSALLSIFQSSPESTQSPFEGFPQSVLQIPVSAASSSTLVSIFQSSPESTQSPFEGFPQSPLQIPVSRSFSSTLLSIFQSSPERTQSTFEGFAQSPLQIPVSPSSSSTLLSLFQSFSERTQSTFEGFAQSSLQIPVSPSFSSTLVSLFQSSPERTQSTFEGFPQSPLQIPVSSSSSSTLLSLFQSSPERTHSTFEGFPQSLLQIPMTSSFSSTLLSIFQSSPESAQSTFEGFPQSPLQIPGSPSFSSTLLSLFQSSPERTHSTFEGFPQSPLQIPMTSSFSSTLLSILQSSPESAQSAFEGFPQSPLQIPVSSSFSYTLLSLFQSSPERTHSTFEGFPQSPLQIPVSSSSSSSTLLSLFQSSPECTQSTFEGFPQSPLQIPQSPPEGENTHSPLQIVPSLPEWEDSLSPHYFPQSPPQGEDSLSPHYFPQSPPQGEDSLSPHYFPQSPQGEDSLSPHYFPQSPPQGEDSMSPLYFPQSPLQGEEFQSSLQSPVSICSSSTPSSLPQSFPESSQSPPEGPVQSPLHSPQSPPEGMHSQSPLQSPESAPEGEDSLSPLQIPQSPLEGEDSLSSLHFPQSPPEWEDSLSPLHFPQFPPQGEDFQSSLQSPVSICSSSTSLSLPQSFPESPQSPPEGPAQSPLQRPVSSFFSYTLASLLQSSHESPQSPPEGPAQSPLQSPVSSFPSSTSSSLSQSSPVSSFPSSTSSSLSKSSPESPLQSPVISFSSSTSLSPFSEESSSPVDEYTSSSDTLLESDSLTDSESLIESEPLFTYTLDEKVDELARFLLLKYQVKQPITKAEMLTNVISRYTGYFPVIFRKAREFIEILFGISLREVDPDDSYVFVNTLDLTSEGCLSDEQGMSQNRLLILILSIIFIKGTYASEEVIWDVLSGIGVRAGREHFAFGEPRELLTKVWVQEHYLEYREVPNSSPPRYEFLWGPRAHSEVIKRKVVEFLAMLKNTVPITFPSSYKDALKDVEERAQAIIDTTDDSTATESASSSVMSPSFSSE
UniProt Q9NU23: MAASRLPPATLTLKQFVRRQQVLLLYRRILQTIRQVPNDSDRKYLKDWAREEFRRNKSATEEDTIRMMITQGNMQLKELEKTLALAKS
UniProt P12980: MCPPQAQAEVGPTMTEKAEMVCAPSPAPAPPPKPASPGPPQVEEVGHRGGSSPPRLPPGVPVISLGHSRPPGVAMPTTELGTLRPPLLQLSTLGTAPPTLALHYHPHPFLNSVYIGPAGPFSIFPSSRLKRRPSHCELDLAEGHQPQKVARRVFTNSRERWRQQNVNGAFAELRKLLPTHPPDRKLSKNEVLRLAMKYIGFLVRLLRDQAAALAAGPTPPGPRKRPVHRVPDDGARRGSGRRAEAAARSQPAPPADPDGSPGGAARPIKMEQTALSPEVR
UniProt Q9NQ29: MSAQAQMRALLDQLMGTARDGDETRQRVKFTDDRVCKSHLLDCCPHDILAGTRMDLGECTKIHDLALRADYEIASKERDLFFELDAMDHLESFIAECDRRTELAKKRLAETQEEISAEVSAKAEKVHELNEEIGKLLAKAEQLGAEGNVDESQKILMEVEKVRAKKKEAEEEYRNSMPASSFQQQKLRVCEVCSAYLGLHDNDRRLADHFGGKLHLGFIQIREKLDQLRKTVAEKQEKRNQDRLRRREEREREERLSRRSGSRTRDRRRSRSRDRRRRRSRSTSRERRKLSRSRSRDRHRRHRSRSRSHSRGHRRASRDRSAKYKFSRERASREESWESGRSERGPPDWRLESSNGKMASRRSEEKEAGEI
UniProt Q7Z3D4: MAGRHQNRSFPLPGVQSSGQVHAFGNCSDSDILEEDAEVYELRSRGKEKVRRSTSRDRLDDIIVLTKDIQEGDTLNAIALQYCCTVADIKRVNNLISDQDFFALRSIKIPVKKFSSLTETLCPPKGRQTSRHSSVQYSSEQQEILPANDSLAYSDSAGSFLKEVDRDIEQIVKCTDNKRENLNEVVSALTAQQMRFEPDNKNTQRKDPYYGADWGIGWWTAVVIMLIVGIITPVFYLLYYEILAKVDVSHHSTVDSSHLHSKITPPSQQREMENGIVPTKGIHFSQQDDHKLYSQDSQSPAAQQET
UniProt O43325: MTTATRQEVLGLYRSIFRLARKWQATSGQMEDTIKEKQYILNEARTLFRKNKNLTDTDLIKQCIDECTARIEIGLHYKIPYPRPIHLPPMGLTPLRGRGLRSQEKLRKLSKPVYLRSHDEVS

What follows are targets tested with C1=CC=C(C=C1)[C@H](COC2=CC3=C(C=C2)NC(=O)N3)NC(=O)C4=CC=CN(C4=O)CC5=CC(=C(C=C5)F)F (assay: log2 fold change, soluble protein after heating vs DMSO (PISA); higher = thermal stabilisation; K562 cells, 10 uM, 30 min; active = over 0.2 and 3.5 SD of the protein, either way, in both replicates (recomputed)).
Method in brief: (§1)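 For each measurement, 10 μM compound was applied for 30 min to K562 cells at 2×10^6 cells/mL. Aliquots were heated for 3 min across 48°C-58°C, pooled, and extracted in PBS with 0.5% NP-40 at 4°C; the supernatant after 21,000xg for 90 min was soluble protein. This was quantified by TMTpro 16plex LC-MS/MS with channel sums equalised, and thermal stability was reported relative to control samples from duplicates, on a log2 fold-change scale.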

Target | log2 fold change
LTBR (UniProt P36941) | inactive: 0.023
MAP3K4 isoform 2 (UniProt Q9Y6R4) | inactive: -0.047
LYAR (UniProt Q9NX58) | inactive: 0.131
LTN1 isoform 3 (UniProt O94822) | inactive: -0.058
MAP4 (UniProt P27816) | inactive: 0.028
MACROD1 (UniProt Q9BQ69) | inactive: -0.111
MAPRE2 (UniProt Q15555) | inactive: -0.337
LUC7L2 (UniProt Q9Y383) | inactive: 0.023
MAN2C1 isoform 4 (UniProt Q9NTJ4) | inactive: -0.082
MAGEB2 (UniProt O15479) | inactive: 0.112
MACF1 (UniProt Q9UPN3) | inactive: -0.026
MARCHF3 (UniProt Q86UD3) | inactive: -0.096
LRRC59 (UniProt Q96AG4) | inactive: -0.022
MAP3K7 (UniProt O43318) | inactive: -0.085
MAIP1 (UniProt Q8WWC4) | inactive: 0.012
MAPKAPK2 (UniProt P49137) | inactive: -0.047

Target | log2 fold change
MAPK8 isoform 3 (UniProt P45983) | inactive: -0.007
MAP1S (UniProt Q66K74) | inactive: -0.028
MAN1A1 (UniProt P33908) | inactive: 0.042
MAGEC1 (UniProt O60732) | inactive: 0.088
MARK2 (UniProt E9PC69) | inactive: -0.029
MAP4 (UniProt E7EVA0) | inactive: -0.009
MAP2K1 (UniProt Q02750) | inactive: -0.01
LYRM2 (UniProt Q9NU23) | inactive: 0.044
LRRC8B (UniProt Q6P9F7) | inactive: -0.003
LYL1 (UniProt P12980) | inactive: 0.066
MANBA (UniProt O00462) | inactive: 0.063
LUC7L (UniProt Q9NQ29) | inactive: 0.011
MAN2A1 (UniProt Q16706) | inactive: 0.046
MAP4 isoform 5 (UniProt P27816) | inactive: 0.077
LYSMD3 (UniProt Q7Z3D4) | inactive: 0.046
LYRM1 (UniProt O43325) | inactive: -0.05

These targets were tested with CC1=C(SC2=C1C(=N[C@H](C3=NN=C(N32)C)CC(=O)N)C4=CC=C(C=C4)Cl)C in the same assay as above.
Method in brief: as §1

Target | log2 fold change
LTBR (UniProt P36941) | inactive: -0.105
MAP3K4 isoform 2 (UniProt Q9Y6R4) | inactive: 0.026
LYAR (UniProt Q9NX58) | inactive: -0.411
LTN1 isoform 3 (UniProt O94822) | inactive: 0.015
MAP4 (UniProt P27816) | inactive: -0.017
MACROD1 (UniProt Q9BQ69) | inactive: 0.086
MAPRE2 (UniProt Q15555) | inactive: -0.028
LUC7L2 (UniProt Q9Y383) | inactive: -0.044
MAN2C1 isoform 4 (UniProt Q9NTJ4) | inactive: -0.006
MAGEB2 (UniProt O15479) | inactive: -0.213
MACF1 (UniProt Q9UPN3) | inactive: -0.021
LRRC59 (UniProt Q96AG4) | inactive: 0.015
MAP3K7 (UniProt O43318) | inactive: 0.005
MAIP1 (UniProt Q8WWC4) | inactive: 0.075
MAPKAPK2 (UniProt P49137) | inactive: 0.064
MAPK8 isoform 3 (UniProt P45983) | inactive: 0.151
MAP1S (UniProt Q66K74) | inactive: 0.054
MAN1A1 (UniProt P33908) | inactive: -0.028
MAGEC1 (UniProt O60732) | inactive: -0.11
MARK2 (UniProt E9PC69) | inactive: 0.038
MAP4 (UniProt E7EVA0) | inactive: -0.15
MAP2K1 (UniProt Q02750) | inactive: 0.033
LYRM2 (UniProt Q9NU23) | inactive: 0.098
LYL1 (UniProt P12980) | inactive: 0.011
MANBA (UniProt O00462) | inactive: 0.028
LUC7L (UniProt Q9NQ29) | inactive: -0.015
MAN2A1 (UniProt Q16706) | inactive: -0.019
LYSMD3 (UniProt Q7Z3D4) | inactive: -0.071
LYRM1 (UniProt O43325) | inactive: 0.037

The targets below were run with CC1=C2C(=CC=C1)N=C(N(C2=O)C3=CC=CC=C3C)CN4C=NC5=C(N=CN=C54)N in the same assay as above.
Method in brief: as §1

Target | log2 fold change
LTBR (UniProt P36941) | inactive: 0.072
MAP3K4 isoform 2 (UniProt Q9Y6R4) | inactive: 0.057
LYAR (UniProt Q9NX58) | inactive: -0.435
LTN1 isoform 3 (UniProt O94822) | inactive: 0.08
MAP4 (UniProt P27816) | inactive: -0.058
MACROD1 (UniProt Q9BQ69) | inactive: 0.315
MAPRE2 (UniProt Q15555) | inactive: -0.228
LUC7L2 (UniProt Q9Y383) | inactive: 0.036
MAN2C1 isoform 4 (UniProt Q9NTJ4) | inactive: 0.002
MAGEB2 (UniProt O15479) | inactive: -0.208
MACF1 (UniProt Q9UPN3) | inactive: 0.032
LRRC59 (UniProt Q96AG4) | inactive: 0.01
MAP3K7 (UniProt O43318) | inactive: 0.11
MAIP1 (UniProt Q8WWC4) | inactive: 0.028
MAPKAPK2 (UniProt P49137) | inactive: 0.012
MAPK8 isoform 3 (UniProt P45983) | inactive: 0.072
MAP1S (UniProt Q66K74) | inactive: 0.012
MAN1A1 (UniProt P33908) | inactive: 0.087
MAGEC1 (UniProt O60732) | inactive: -0.029
MARK2 (UniProt E9PC69) | inactive: 0.174
MAP4 (UniProt E7EVA0) | inactive: -0.095
MAP2K1 (UniProt Q02750) | inactive: 0.099
LYRM2 (UniProt Q9NU23) | inactive: 0.144
LYL1 (UniProt P12980) | inactive: -0.082
MANBA (UniProt O00462) | inactive: 0.04
LUC7L (UniProt Q9NQ29) | inactive: -0.011
MAN2A1 (UniProt Q16706) | inactive: 0.059
LYSMD3 (UniProt Q7Z3D4) | inactive: 0.087
LYRM1 (UniProt O43325) | inactive: 0.08
